In patent US7452977B2, “Antibody to a kinase capable of site-specific phosphorylation of IκBα” (Millennium Pharmaceuticals, Inc., priority 1996, dated 2008):

Tests used:
NF-κB = test: Activation of NF-κB in vivo by agonists; type: cell-based; conditions: agonists including PMA and ionomycin, TNF-α, and LPS
IκBα = test: Phosphorylation and ubiquitination of 35S-labeled IκBα in HeLa cell cytoplasmic extracts with okadaic acid; type: biochemical, human; conditions: 10 μM, in the presence of okadaic acid, FIG. 9

CN[C@@H]1C[C@H]2O[C@@](C)([C@@H]1OC)n1c3ccccc3c3c4c(c5c6ccccc6n2c5c31)C(=O)NC4 [Staurosporine]
inhibition of the activation of NF-κB in vivo (NF-κB): inhibit the activation of NF-κB in vivo
inhibition of phosphorylation and ubiquitination of IκBα in HeLa cell extracts (IκBα): Inhibit
inhibition of phosphorylation and ubiquitination of IκBα in HeLa cell extracts (IκBα; listed as staurosporine): inhibit
